Experimental data published in patent US20250166176A1, “METHODS AND MATERIALS FOR IMAGING ADIPOSE TISSUE” (CellSight Technologies Inc., priority 2022, published 2025).

Key:
[1] = system: iBAT; assay: [18F]F-AraG PET imaging of iBAT in mice with GBM tumors; format: in vivo
From the text: During our studies into the utility of ^18F-AraG in assessing intracranial T cell infiltration in glioblastoma multiforme (GBM) we made the unexpected and surprising discovery that ^18F-AraG can also image and/or assess the activation of adipose tissue (FIG. 2). Adipose, or fat, tissue (AT) was once considered an inert tissue that primarily existed to store lipids, and was not historically recognized as an important organ in the regulation and maintenance of health. With the rise of obesity and more rigorous research, AT is now recognized as a highly complex metabolic organ involved in a host of important physiological functions, including glucose homeostasis and a multitude of endocrine capabilities. […] The study of AT can provide useful insights in developing strategies to combat these highly prevalent metabolic diseases.
[^18F]F-AraG ability to track stimulated adipocytes allowed observation of activated iBAT in mice with bioluminescently-tagged GBM tumors. The activation occurred at different time points and varied in intensity.

[2] = system: intrascapular BAT (iBAT); assay: [18F]F-AraG and FDG PET imaging of BAT in mice treated with BRL37344, insulin or vehicle; format: in vivo

Row | SMILES | fold increase in iBAT [18F]F-AraG signal ([1]; OnTx3 vs. PreTx, one GBM mouse) | accumulation in brown fat (FIG. 2, in words) ([1]; day 23 vs day 14 post gbm cell implantation) | tracer accumulation in iBAT (in words) [2]
1 | Nc1nc2c(ncn2[C@@H]2O[C@H](CO)[C@@H](O)[C@@H]2[18F])c(=O)[nH]1 [[^18F]F-AraG, [18F]-F-arabinofuranosyl guanine] | ~9 fold | much higher accumulation in brown fat | 
2 | OC[C@H]1OC(O)[C@H]([18F])[C@@H](O)[C@@H]1O (stereo partly drawn) [FDG, 2-[F^18]fluoro-2-deoxy-D-glucose, reference compound] |  |  | increased accumulation in iBAT not only with BRL37344 but in insulin-treated animals as well
